Measurements reported in PubChem BioAssay AID652243 (Drosophila RNAi Screening Center, 2013)

Aim: 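Fly genes required for human androgen receptor driven transcription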 (primary screen)
System: Drosophila S2R+ cells
Reagent: long dsRNA against Drosophila genes
Timing: 72 h (48 h, then 24 h hormone)
Challenge: synthetic androgen R1881 at 10 nM for 24 h
Read-out: 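Firefly light from an androgen-responsive reporter and Renilla control light per well, raw and unnormalised, for each of two replicates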
Scale: firefly reporter light: higher = more light from androgen-responsive reporter; Renilla control light: higher = more constitutive control signal (cell number, transfection)
Call rule: 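Hit when the log firefly-to-Renilla ratio dropped or increased by a fixed fold versus the mean of GFP or LacZ controls across duplicate plates; lowering cut given as 1.5 and as 3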
Calls: active = hit: reporter lowered or raised; inactive = no hit
In all, the deposit lists about 24,000 reagents; shown is an unselected part of those that have a named target and a result. Over the whole deposit, 246 (1%) are marked active. 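Plates not normalised; calls are printed but the firefly/Renilla ratio behind them is not deposited; fold cut for lowering reported inconsistently.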 Raw values vary from plate to plate and are shown uncorrected. Reagents against one gene are numbered here. Names joined by + are all predicted targets of the reagent. No sequences are given here. The record does not give: the amount of reagent.

gene knocked down | dsRNA no. | firefly reporter light, replicate 1 | firefly reporter light, replicate 2 | Renilla control light, replicate 1 | Renilla control light, replicate 2 | call
CG13177 (GeneID 5740215) | 1 | 3.07e5 | 3.22e5 | 1.95e6 | 2.36e6 | inactive
Elp5 (GeneID 38287) | 1 | 73821 | 68132 | 8.22e5 | 8.26e5 | inactive
tgy (GeneID 32896) | 1 | 3.12e5 | 1.74e5 | 1.09e6 | 5.95e5 | inactive
CG42262 (retired record) (GeneID 50410) | 1 | 7.76e5 | 1.05e6 | 1.16e6 | 1.55e6 | inactive
CG42262 (retired record) (GeneID 50410) | 2 | 3.72e5 | 4.07e5 | 2.88e6 | 2.82e6 | inactive
Tektin-C (GeneID 38653) | 1 | 2.11e5 | 1.53e5 | 1.60e6 | 1.56e6 | inactive
Tektin-C (GeneID 38653) | 2 | 2.63e5 | 2.07e5 | 6.41e5 | 6.85e5 | inactive
Fgop2 (GeneID 33971) | 1 | 3.57e5 | 5.93e5 | 1.60e6 | 1.73e6 | inactive
Cpr47Ee (GeneID 36193) | 1 | 7.41e5 | 1.09e6 | 1.08e6 | 1.35e6 | inactive
tim (GeneID 33571) | 1 | 6.51e5 | 8.47e5 | 1.51e6 | 1.29e6 | inactive
Rab6 (GeneID 34636) | 1 | 6.82e5 | 7.50e5 | 1.40e6 | 1.39e6 | inactive
Rab6 (GeneID 34636) | 2 | 3.58e5 | 2.42e5 | 6.00e5 | 3.27e5 | inactive
CG9109 (GeneID 33844) | 1 | 1.05e6 | 1.18e6 | 2.10e6 | 2.05e6 | inactive
CG9109 (GeneID 33844) | 2 | 3.15e5 | 2.74e5 | 5.67e5 | 6.30e5 | inactive
corn (GeneID 38786) | 1 | 1.29e6 | 4.96e5 | 1.99e6 | 9.22e5 | inactive
corn (GeneID 38786) | 2 | 5.25e5 | 6.23e5 | 1.57e6 | 1.57e6 | inactive
corn (GeneID 38786) | 3 | 6.15e5 | 5.27e5 | 6.82e5 | 7.27e5 | inactive
lncRNA:CR40053 (GeneID 14462918) | 1 | 5.60e5 | 4.83e5 | 5.78e5 | 5.07e5 | inactive
lncRNA:CR40053 (GeneID 14462918) | 2 | 2.21e5 | 5.16e5 | 4.37e5 | 9.39e5 | inactive
lncRNA:CR40053 (GeneID 14462918) | 3 | 3.27e5 | 3.41e5 | 1.26e6 | 1.39e6 | inactive
Best2 (GeneID 38727) | 1 | 1.04e5 | 1.24e5 | 1.06e6 | 1.66e6 | inactive
CG15631 (GeneID 33675) | 1 | 91618 | 1.56e5 | 6.78e5 | 1.04e6 | inactive
CG32024 (GeneID 317828) | 1 | 7.13e5 | 6.44e5 | 1.91e6 | 1.34e6 | inactive
Cisd2 (GeneID 43459) | 1 | 2.73e5 | 4.33e5 | 2.18e6 | 3.27e6 | inactive
CG9389 (GeneID 40347) | 1 | 64738 | 36543 | 2.72e5 | 3.00e5 | inactive
CG9389 (GeneID 40347) | 2 | – | – | – | – | inactive
CG9389 (GeneID 40347) | 3 | – | – | – | – | inactive
Hml (GeneID 39529) | 1 | 1.51e5 | 1.74e5 | 1.25e6 | 1.94e6 | inactive
CG18278 + CG30059 | 1 | 1.73e5 | 2.20e5 | 3.78e5 | 4.54e5 | inactive
CG5644 (GeneID 39029) | 1 | 2.03e5 | 1.69e5 | 1.65e6 | 1.06e6 | inactive
KP78a + KP78b | 1 | 91601 | 1.12e5 | 1.48e6 | 1.26e6 | inactive
KP78a + KP78b | 2 | 1.20e5 | 1.09e5 | 2.36e6 | 2.03e6 | inactive
cv-d (GeneID 41921) | 1 | 84424 | 1.28e5 | 5.94e5 | 6.67e5 | inactive
cv-d (GeneID 41921) | 2 | 1.09e5 | 1.40e5 | 1.67e6 | 1.88e6 | inactive
cv-d (GeneID 41921) | 3 | 2.09e5 | 1.66e5 | 3.04e6 | 3.36e6 | inactive
l(2)37Bb (GeneID 49427) | 1 | 3.80e5 | 4.33e5 | 2.66e6 | 2.46e6 | inactive
Obp83g (GeneID 170878) | 1 | 52487 | 70810 | 1.31e6 | 1.21e6 | inactive
Obp83g (GeneID 170878) | 2 | 3.04e5 | 6.12e5 | 6.74e5 | 1.84e6 | inactive
CG6472 (GeneID 36895) | 1 | 54868 | 61375 | 9.40e5 | 9.40e5 | inactive
hbs (GeneID 44129) | 1 | 1.34e5 | 1.27e5 | 3.57e6 | 3.57e6 | inactive
VGAT (GeneID 36574) | 1 | 68424 | 85971 | 1.65e6 | 1.65e6 | inactive
Jon99Ci (GeneID 43545) | 1 | 1.66e5 | 1.53e5 | 2.18e6 | 2.31e6 | inactive
Jon99Ci (GeneID 43545) | 2 | 4.75e5 | 5.33e5 | 1.70e6 | 1.33e6 | inactive
aft (GeneID 37034) | 1 | 9.28e5 | 9.79e5 | 2.16e6 | 1.87e6 | inactive
ric8b + ric8a | 1 | 3.74e5 | 3.61e5 | 2.79e6 | 3.00e6 | inactive
Tapdelta (GeneID 45680) | 1 | 8.95e5 | 1.26e6 | 1.28e6 | 1.85e6 | inactive
Os-C (GeneID 40942) | 1 | 62551 | 93905 | 1.83e6 | 1.56e6 | inactive
Os-C (GeneID 40942) | 2 | 7.74e5 | 4.51e5 | 1.38e6 | 1.00e6 | inactive
ari-1 (GeneID 32796) | 1 | 1.88e5 | 5.53e5 | 5.26e6 | 4.90e6 | inactive
ari-1 (GeneID 32796) | 2 | 7.58e5 | 7.26e5 | 2.02e6 | 2.12e6 | inactive
ari-1 (GeneID 32796) | 3 | 3.07e5 | 1.54e5 | 5.63e5 | 8.17e5 | inactive
Tsp42Ec (GeneID 35612) | 1 | 2.03e5 | 2.04e5 | 1.36e6 | 1.75e6 | inactive
Tsp42Ec (GeneID 35612) | 2 | 4.40e5 | 2.99e5 | 1.01e6 | 7.19e5 | inactive
CG30440 (GeneID 35496) | 1 | 2.63e5 | 2.93e5 | 5.66e5 | 5.00e5 | inactive
CG30440 (GeneID 35496) | 2 | 4.29e5 | 4.02e5 | 3.14e6 | 2.41e6 | inactive
CG30440 (GeneID 35496) | 3 | 2.65e5 | 2.38e5 | 1.69e6 | 1.22e6 | inactive
CR33013 (GeneID 14462581) | 1 | 2.09e5 | 1.42e5 | 1.34e6 | 9.66e5 | inactive
CR33013 (GeneID 14462581) | 2 | 7.92e5 | 7.94e5 | 9.61e5 | 1.03e6 | inactive

Copied from the list.
Tapdelta (GeneID 45680), call → inactive
lncRNA:CR40053 (GeneID 14462918) #2, firefly reporter light, replicate 1: 2.21e5
Result of aft (GeneID 37034) under “firefly reporter light, replicate 1”: 9.28e5
For “Renilla control light, replicate 1”, lncRNA:CR40053 (GeneID 14462918) #3 is entered as 1.26e6
Result for ric8b + ric8a in “call”: inactive
CG42262 (retired record) (GeneID 50410) #1, firefly reporter light, replicate 1: 7.76e5
